Reference: patent US20240228660A1
Results are given in words; binding and its absence hold for the method and conditions named.

The chains behind the UniProt entries cited, without tags or fusion partners. Residues count along the entry.
UniProt P02769, residues 25-607: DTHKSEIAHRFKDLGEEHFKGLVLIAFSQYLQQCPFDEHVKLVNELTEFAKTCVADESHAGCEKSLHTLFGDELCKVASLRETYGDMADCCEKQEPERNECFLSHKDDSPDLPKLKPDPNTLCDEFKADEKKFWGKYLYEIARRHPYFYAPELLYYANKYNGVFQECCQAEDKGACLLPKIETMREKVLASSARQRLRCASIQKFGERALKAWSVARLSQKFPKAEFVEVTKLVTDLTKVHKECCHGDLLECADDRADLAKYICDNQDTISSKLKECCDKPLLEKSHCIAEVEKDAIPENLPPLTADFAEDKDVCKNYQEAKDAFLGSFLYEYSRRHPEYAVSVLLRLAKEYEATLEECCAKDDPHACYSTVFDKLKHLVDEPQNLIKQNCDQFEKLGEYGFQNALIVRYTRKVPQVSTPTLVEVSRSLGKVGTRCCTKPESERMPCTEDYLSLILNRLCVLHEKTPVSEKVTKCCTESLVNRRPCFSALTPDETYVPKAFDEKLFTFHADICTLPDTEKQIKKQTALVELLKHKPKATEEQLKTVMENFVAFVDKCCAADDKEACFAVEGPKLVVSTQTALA

Biological target: BSA (UniProt P02769)
Assay: ELISA, BSA coated at 100 ng/well, semi-log dilution of the mAb from 10 µg/ml, anti-human IgG-HRP/TMB

B1: 4-H9 (antibody, human IgG1, V domains shown)
VH: QSVEESGGRLVTPGTPLTLTCTASGFSLNSFAMSWVRQAPGKGLEWIGIITVDGHTYYASWAKGRFTISKASTTVDLKITSPTTEDTATYFCAREDAGDAGYIYATYNIWGPGTLVTVSS
VL: AIEMTQTPSSLAASVGDTVTITCKASEDIGYGLAWYQQKLGIAPKLLIYGANTLESGVPSRFSGSGSETDYTLTISSVQAEDAGIYYCQQGYSTPPTFGAGTMVEIQ
  binding: no binding (tested: 10 µg/ml)
